Assay results: patent US12161763B2, “Formulation and method for increasing oral bioavailability of drugs” (Yissum Research Development Company of the Hebrew …, priority 2012, dated 2024)
Where a name gives a salt, the structure may show the parent alone.

How the values were obtained:
in vivo = conditions: male, Wistar, rat, plasma, po, 12.5 mg/kg
CYP3A4 = conditions: rat, microsomes, 2 h
[1] = AM oral bioavailability and blank nano-lipospheres co-administration PK studies; conditions: PO 12.5 mg/kg AM, rats

- AUC (in vivo): 4540 ± 2600 ng·h/mL
- CL/F (in vivo): 40.2 mL/min/kg
- Cmax (in vivo): 360 ± 70 ng/mL
- intact AM concentrations remaining (CYP3A4): 68.57±1.17%
- V/F [1]: 34.32 ± 5.447 L/kg
Structure (SMILES): CCCCc1oc2ccccc2c1C(=O)c1cc(I)c(OCCN(CC)CC)c(I)c1 [AM, Amiodarone HCl]
